According to paper PMC6949295 (2020):
No constants are given. Whether binding was seen depends on the method and setting. In cells and extracts the contact can be indirect. Some binding calls cover weakened binding; strength is not graded here.

The chains behind the UniProt entries cited, without tags or fusion partners. Where a name states a change or a piece, a line headed by the entry shows the natural chain unless it says otherwise.
UniProt O54922: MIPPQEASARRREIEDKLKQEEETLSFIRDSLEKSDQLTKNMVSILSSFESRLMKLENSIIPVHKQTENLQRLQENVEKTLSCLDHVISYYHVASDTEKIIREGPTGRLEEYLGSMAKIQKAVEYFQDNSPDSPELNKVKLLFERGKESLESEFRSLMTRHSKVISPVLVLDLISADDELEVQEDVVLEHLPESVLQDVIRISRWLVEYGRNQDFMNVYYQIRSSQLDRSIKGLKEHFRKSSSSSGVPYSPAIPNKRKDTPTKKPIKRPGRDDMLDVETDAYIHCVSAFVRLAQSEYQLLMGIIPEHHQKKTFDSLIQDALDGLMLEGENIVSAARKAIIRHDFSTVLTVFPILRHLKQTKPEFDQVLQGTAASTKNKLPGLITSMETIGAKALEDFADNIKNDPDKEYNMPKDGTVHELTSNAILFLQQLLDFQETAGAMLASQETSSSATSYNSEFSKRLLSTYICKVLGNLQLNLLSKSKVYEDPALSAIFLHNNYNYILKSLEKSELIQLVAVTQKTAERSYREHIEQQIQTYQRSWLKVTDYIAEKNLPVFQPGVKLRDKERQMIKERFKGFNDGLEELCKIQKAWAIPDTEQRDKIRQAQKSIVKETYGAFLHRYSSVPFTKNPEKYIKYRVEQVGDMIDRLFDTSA
UniProt Q62825: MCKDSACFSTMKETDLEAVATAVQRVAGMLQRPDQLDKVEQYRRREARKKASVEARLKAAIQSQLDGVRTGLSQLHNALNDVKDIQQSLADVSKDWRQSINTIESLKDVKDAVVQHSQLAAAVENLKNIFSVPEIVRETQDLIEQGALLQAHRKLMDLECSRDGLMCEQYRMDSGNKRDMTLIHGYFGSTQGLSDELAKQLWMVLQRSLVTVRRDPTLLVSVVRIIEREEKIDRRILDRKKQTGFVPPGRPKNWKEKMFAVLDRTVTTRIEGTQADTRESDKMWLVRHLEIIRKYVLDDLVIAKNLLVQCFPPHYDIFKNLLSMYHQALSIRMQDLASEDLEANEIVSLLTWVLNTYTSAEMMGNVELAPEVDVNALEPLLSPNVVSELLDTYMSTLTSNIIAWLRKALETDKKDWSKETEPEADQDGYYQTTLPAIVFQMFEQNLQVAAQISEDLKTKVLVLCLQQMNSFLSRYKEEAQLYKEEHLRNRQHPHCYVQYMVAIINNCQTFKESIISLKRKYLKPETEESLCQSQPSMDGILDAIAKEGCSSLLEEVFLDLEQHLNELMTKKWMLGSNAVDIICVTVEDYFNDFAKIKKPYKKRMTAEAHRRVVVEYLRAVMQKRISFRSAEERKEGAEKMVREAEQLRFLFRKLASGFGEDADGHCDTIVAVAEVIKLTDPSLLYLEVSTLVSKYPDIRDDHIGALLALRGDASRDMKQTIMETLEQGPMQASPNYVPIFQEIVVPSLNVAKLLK
UniProt Q62824: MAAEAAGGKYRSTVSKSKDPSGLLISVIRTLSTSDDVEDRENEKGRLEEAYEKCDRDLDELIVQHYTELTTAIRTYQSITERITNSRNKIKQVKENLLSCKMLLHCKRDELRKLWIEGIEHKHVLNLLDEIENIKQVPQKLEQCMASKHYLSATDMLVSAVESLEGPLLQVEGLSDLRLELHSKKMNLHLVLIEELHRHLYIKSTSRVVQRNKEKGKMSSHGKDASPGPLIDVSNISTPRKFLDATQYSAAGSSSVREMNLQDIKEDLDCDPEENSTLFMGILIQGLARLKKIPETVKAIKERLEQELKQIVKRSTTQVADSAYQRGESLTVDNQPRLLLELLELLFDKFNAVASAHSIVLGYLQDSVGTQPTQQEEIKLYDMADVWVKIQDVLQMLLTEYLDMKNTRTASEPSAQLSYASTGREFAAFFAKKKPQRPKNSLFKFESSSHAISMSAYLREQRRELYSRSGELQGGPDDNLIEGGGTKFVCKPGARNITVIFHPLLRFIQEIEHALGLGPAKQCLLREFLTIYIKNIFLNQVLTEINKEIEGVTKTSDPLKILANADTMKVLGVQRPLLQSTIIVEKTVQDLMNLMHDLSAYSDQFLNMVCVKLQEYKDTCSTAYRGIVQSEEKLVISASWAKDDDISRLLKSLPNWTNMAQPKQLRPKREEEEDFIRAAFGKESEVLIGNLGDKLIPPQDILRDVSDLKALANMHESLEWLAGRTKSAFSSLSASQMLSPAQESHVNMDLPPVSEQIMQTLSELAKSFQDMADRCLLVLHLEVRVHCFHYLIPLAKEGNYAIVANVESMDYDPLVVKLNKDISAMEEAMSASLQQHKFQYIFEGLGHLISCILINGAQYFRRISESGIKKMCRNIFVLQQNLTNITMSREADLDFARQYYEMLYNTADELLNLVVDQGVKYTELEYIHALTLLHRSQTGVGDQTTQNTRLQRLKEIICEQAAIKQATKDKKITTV
UniProt O54924: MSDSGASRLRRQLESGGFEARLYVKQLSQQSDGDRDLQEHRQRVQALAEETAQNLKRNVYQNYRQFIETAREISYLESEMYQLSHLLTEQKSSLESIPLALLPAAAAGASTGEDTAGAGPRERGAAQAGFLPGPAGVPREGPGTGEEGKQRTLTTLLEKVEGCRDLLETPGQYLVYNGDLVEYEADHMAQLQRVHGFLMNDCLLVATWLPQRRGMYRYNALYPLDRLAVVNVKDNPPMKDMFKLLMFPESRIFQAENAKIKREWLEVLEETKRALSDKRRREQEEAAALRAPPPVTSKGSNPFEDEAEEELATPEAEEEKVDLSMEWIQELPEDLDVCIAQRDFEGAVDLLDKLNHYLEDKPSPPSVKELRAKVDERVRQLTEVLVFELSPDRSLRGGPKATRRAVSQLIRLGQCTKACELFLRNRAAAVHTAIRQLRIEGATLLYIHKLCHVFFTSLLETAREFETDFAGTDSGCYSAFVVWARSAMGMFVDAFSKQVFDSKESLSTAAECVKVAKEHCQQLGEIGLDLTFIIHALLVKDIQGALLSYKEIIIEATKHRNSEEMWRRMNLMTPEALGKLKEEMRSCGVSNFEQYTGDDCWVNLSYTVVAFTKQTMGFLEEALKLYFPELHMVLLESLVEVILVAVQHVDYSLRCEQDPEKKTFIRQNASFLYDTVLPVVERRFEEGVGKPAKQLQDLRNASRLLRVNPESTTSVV

Tests used:
[1] = biological target: Exo70-Flag (rat) (UniProt O54922); assay: co-IP; 293T cells transfected with Exo70-Flag or Exo70(3D)-Flag together with HA-Sec6, HA-Sec8 or HA-Exo84
[2] = biological target: Exo70-3A (S47A/S59A/S89A), HA-tagged and Flag-tagged copies co-expressed (rat) (UniProt O54922); assay: co-IP; 293T cells co-transfected with HA-tagged and Flag-tagged Exo70 (wild type or mutant), in the presence or absence of Myc-ULK1
[3] = biological target: Exo70-3D (S47D/S59D/S89D), HA-tagged and Flag-tagged copies co-expressed (rat) (UniProt O54922); assay: as above
[4] = biological target: Exo70(S89A), HA-tagged and Flag-tagged copies co-expressed (rat) (UniProt O54922); assay: as above
[5] = biological target: Exo70(S47A), HA-tagged and Flag-tagged copies co-expressed (rat) (UniProt O54922); assay: as above
[6] = biological target: Exo70(S89D), HA-tagged and Flag-tagged copies co-expressed (rat) (UniProt O54922); assay: as above
[7] = biological target: Exo70(S47D/S89D), HA-tagged and Flag-tagged copies co-expressed (rat) (UniProt O54922); assay: as above
[8] = biological target: Exo70(S59A), HA-tagged and Flag-tagged copies co-expressed (rat) (UniProt O54922); assay: as above
[9] = biological target: Exo70 wild type, HA-tagged and Flag-tagged copies co-expressed (rat) (UniProt O54922); assay: as above
[10] = biological target: Exo70(S59D/S89D), HA-tagged and Flag-tagged copies co-expressed (rat) (UniProt O54922); assay: as above

Q: With HA-Sec6 (from UniProt Q62825 1-755) as the substance, how does the binding [1] read?
A: binds

Q: How did the binding [1] turn out when HA-Sec8 (from UniProt Q62824 1-975) was run?
A: binds

Q: How did the binding [2] turn out when “Exo70-3A (S47A/S59A/S89A), HA-tagged and Flag-tagged copies co-expressed (from UniProt O54922 1-653)” was run?
A: binds

Q: “Exo70-3D (S47D/S59D/S89D), HA-tagged and Flag-tagged copies co-expressed (from UniProt O54922 1-653)” was tested. Which binding [3] did it give?
A: binds weakly

Q: Which binding [4] does the source give for “Exo70(S89A), HA-tagged and Flag-tagged copies co-expressed (from UniProt O54922 1-653)” here?
A: binds

Q: “Exo70(S47A), HA-tagged and Flag-tagged copies co-expressed (from UniProt O54922 1-653)” was tested. Which binding [5] did it give?
A: binds

Q: “Exo70(S89D), HA-tagged and Flag-tagged copies co-expressed (from UniProt O54922 1-653)” was tested. Which binding [6] did it give?
A: binds

Q: Which binding [7] does the source give for “Exo70(S47D/S89D), HA-tagged and Flag-tagged copies co-expressed (from UniProt O54922 1-653)” here?
A: binds

Q: HA-Exo84 (from UniProt O54924 1-716) was tested. Which binding [1] did it give?
A: binds

Q: Which binding [8] does the source give for “Exo70(S59A), HA-tagged and Flag-tagged copies co-expressed (from UniProt O54922 1-653)” here?
A: binds

Q: How did the binding [9] turn out when “Exo70 wild type, HA-tagged and Flag-tagged copies co-expressed (from UniProt O54922 1-653)” was run?
A: binds

Q: With “Exo70(S59D/S89D), HA-tagged and Flag-tagged copies co-expressed (from UniProt O54922 1-653)” as the substance, how does the binding [10] read?
A: binds
